The list shows a part of the results.
Legend:
Assay in all cases: log2 fold change, soluble protein after heating vs DMSO (PISA); higher = thermal stabilisation; K562 lysate, 10 uM; active = over 0.2 and 3.5 SD of the protein, either way, in both replicates (recomputed)
erlotinib = compound: C#Cc1cccc(Nc2ncnc3cc(OCCOC)c(OCCOC)cc23)c1 [erlotinib]
Summary of the method: (§1)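 The values are log-two fold changes in thermal stability compared with solvent controls and come from duplicates. They were obtained by TMTpro 16plex LC-MS/MS, with channel sums equalised, on the supernatant after 21,000xg for 90 min. That supernatant came from crude K562 extract at 1 mg/mL protein treated with 10 μM compound for 30 min, heated for 3 min across 48°C-58°C, pooled and brought to 0.5% NP-40 at 4°C.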

Chains of the proteins cited; added tags and fusions are not shown. Lines headed by an entry give the natural chain unless they say otherwise; changes in a name come on top.
UniProt Q9Y484: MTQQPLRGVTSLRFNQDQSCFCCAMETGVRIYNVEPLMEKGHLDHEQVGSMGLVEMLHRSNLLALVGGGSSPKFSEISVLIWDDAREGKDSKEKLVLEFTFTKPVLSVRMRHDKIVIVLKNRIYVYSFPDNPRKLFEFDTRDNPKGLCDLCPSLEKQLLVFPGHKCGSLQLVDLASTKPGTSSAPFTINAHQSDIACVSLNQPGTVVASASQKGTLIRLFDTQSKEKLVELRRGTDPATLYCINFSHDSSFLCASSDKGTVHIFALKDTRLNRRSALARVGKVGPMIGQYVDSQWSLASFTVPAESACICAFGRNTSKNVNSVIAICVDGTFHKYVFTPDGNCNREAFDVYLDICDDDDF
UniProt Q7Z5U6: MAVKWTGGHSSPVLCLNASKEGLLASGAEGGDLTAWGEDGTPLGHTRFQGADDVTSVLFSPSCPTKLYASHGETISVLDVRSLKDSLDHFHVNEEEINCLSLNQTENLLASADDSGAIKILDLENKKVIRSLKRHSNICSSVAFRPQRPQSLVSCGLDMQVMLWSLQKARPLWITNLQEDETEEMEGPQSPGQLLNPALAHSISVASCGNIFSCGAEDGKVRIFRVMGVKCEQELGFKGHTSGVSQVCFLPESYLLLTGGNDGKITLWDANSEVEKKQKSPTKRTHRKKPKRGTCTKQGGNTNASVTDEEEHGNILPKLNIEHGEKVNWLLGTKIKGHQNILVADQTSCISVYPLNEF
UniProt Q8N3P4: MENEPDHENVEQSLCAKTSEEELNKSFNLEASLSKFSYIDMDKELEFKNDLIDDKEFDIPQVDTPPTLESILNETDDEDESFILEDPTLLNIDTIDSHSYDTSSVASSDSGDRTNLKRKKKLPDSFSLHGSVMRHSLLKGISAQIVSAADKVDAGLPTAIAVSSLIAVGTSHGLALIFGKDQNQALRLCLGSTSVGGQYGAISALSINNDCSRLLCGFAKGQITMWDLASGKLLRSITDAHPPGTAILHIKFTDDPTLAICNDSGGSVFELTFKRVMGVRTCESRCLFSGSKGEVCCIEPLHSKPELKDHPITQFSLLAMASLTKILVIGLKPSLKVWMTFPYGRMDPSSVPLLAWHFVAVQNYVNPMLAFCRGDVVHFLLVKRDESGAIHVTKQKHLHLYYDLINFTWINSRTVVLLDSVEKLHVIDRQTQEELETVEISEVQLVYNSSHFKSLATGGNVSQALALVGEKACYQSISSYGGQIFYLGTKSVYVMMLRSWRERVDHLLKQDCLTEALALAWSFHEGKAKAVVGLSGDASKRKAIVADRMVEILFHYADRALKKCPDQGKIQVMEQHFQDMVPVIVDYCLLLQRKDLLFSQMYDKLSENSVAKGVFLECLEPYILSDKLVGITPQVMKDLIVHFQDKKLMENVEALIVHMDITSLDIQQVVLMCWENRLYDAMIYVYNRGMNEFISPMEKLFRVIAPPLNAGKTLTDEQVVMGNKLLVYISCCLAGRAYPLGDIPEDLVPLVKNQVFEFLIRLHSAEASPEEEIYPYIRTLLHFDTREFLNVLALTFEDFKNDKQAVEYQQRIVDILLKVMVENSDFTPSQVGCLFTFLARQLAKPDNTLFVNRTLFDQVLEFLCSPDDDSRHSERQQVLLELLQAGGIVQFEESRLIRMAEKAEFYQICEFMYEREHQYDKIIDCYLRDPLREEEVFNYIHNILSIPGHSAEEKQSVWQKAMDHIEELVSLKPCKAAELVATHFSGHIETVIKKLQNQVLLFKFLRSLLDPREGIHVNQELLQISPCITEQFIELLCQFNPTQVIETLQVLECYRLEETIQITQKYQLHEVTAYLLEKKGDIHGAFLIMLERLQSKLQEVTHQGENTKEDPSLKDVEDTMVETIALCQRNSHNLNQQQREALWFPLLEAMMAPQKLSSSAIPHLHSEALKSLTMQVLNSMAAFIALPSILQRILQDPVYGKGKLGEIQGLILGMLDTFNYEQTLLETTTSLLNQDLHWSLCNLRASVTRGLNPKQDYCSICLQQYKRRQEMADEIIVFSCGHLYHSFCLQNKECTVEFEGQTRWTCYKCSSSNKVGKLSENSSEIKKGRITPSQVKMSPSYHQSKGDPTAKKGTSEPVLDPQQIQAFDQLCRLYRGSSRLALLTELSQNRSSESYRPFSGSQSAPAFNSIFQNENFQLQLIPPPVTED
UniProt Q96EX3: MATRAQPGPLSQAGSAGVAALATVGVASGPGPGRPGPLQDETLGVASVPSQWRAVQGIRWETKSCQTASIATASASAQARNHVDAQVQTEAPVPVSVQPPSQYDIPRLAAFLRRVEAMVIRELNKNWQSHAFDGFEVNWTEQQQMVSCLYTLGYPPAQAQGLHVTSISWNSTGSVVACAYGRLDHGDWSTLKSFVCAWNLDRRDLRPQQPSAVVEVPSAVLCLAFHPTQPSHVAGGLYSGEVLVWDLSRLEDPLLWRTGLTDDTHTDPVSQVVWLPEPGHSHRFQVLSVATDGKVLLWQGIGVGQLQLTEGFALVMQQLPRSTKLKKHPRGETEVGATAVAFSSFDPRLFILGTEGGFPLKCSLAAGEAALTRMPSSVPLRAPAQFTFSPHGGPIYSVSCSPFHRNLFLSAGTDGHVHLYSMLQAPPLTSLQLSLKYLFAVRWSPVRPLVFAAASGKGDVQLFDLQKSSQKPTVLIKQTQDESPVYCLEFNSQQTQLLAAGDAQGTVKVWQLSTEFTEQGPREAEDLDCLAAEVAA
UniProt Q96GC9: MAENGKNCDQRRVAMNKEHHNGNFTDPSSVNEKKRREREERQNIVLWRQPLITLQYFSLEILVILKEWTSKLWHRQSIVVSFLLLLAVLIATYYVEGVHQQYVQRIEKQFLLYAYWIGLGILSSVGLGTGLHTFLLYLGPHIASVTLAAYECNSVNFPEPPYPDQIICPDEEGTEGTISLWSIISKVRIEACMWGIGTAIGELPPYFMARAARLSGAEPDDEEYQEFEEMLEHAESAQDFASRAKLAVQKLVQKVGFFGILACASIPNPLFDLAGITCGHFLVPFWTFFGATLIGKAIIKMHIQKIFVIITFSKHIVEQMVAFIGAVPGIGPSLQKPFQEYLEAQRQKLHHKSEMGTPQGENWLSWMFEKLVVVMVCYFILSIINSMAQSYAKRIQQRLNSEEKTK
UniProt Q8IWA0: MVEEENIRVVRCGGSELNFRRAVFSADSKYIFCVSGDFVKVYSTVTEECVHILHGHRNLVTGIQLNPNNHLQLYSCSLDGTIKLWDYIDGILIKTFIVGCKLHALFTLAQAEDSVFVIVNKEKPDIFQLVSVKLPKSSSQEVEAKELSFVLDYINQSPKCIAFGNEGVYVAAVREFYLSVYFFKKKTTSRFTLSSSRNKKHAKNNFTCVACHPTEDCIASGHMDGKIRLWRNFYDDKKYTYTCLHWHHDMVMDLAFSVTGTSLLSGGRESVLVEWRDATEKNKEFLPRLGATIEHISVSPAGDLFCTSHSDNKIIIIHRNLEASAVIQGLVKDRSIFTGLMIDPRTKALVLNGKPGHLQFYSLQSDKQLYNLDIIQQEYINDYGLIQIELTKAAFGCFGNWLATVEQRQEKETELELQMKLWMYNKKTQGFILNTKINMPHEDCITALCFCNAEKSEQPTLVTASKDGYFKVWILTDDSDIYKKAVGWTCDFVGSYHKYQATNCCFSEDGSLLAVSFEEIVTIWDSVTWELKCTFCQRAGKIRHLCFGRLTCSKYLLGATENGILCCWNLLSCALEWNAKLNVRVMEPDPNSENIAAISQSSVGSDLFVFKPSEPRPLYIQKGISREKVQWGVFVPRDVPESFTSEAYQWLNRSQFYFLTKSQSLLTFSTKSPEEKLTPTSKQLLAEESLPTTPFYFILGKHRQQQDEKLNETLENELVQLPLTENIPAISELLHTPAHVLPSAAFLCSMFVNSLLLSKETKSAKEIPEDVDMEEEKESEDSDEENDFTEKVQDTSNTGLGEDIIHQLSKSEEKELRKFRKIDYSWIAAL
UniProt Q9P1Q0: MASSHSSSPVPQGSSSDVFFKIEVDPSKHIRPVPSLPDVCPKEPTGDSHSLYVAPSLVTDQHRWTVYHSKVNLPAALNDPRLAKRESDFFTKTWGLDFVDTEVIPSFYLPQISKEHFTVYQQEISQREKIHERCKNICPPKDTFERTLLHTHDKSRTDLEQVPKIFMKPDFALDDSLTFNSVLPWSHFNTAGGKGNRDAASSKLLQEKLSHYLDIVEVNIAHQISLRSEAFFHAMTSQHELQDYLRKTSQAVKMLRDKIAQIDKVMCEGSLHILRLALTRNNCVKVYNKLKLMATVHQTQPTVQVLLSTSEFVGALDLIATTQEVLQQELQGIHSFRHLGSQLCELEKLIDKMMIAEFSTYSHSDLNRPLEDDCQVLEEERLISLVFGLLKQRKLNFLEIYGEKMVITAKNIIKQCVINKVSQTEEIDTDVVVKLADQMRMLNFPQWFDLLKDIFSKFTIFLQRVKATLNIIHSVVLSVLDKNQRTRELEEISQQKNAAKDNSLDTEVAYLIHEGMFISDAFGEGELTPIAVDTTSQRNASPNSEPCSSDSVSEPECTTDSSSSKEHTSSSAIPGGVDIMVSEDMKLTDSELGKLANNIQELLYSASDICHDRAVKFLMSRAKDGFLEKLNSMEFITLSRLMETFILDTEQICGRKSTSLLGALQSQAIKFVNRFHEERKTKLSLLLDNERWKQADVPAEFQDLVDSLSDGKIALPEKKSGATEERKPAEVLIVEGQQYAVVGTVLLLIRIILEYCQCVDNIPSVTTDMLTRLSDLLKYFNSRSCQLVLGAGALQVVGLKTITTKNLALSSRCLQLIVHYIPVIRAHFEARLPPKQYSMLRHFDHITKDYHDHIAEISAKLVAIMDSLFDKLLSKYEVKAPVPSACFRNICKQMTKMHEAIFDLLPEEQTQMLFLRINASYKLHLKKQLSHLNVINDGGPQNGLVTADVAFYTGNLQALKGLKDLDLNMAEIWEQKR
UniProt Q99986: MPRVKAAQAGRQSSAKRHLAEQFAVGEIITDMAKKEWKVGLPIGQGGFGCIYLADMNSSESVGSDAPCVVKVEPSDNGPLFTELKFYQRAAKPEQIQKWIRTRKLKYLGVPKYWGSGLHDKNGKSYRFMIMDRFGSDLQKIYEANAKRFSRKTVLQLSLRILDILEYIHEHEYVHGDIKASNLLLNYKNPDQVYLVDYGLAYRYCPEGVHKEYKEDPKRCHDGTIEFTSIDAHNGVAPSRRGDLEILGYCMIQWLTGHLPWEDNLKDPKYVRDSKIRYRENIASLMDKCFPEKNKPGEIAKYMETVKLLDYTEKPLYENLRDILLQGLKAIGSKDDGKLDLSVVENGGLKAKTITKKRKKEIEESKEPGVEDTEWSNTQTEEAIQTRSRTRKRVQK
UniProt Q9Y6W5, whole entry, looked up: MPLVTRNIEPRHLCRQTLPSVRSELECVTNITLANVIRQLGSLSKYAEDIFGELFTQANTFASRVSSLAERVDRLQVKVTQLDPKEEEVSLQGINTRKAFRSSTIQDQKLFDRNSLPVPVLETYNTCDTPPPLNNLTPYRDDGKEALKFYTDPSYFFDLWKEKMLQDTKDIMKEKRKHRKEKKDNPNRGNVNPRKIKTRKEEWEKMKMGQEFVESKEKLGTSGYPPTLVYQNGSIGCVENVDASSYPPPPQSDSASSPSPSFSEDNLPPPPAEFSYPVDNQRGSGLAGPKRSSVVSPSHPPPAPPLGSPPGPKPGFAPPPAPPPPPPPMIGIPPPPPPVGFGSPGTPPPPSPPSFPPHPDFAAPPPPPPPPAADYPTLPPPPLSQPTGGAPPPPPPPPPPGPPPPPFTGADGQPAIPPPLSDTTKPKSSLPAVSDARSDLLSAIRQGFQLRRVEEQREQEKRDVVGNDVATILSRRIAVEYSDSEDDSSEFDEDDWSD
UniProt Q9NQA3: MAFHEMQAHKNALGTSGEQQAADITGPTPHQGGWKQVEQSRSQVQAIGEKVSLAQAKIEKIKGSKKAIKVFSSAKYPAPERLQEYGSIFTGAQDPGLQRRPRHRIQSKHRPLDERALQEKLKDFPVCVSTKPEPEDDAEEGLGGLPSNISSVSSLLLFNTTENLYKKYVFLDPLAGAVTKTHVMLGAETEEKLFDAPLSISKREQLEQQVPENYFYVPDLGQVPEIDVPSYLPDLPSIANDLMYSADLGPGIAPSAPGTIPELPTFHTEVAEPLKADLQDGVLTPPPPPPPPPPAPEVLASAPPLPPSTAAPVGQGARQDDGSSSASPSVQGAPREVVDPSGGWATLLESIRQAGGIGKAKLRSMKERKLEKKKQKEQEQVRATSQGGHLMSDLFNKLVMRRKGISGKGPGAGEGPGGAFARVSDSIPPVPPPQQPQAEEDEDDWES
UniProt Q9H977: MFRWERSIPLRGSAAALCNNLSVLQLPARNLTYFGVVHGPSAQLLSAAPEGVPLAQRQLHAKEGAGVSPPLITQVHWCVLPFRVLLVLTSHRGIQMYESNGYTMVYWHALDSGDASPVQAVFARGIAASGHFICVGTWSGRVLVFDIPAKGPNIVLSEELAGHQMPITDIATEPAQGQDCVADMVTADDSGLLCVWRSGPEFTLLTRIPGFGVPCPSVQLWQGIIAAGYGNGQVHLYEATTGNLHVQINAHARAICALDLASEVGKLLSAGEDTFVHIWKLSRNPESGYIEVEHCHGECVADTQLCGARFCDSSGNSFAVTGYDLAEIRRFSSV

[1] = compound: C/C(=N\NC(=O)C1=CC(=CC=C1)S(=O)(=O)N2CCOCC2)/C3=C(C=CC(=C3)Cl)O
Summary of the method: as §1

[2] = compound: C1=CC(=CC=C1C2=NC3=C(N2)C=C(C=C3)C(=O)N)OC4=CC=C(C=C4)Cl
Summary of the method: as §1

[3] = compound: C1=CC2=C(C=CC(=C2)/C=C\3/C(=O)NC(=NCC4=CC=CS4)S3)N=C1
Summary of the method: as §1

[4] = compound: C1=CC2=NC=CN=C2C=C1/C=C/3\C(=O)NC(=O)S3
Summary of the method: as §1

[5] = compound: C1=CC=C(C=C1)C2=NC(=C(N2)C3=CC=NC=C3)C4=CC(=C(C=C4)Cl)O
Summary of the method: as §1

[6] = compound: C1=CC=C2C(=C1)C3=NNC4=CC=CC(=C43)C2=O
Summary of the method: as §1

[7] = compound: C1CCN(C1)C(=O)NC2=CC=CC(=C2)NC3=NC=C(C(=N3)NCCC4=CN=CN4)Br
Summary of the method: as §1

[8] = compound: C1CN(CCC1(CC2=CC=C(C=C2)Cl)N)C3=NC=NC4=C3C=CN4
Summary of the method: as §1

IRAK-1-4 Inhibitor I = compound: C1COCCN1CCN2C3=CC=CC=C3N=C2NC(=O)C4=CC(=CC=C4)[N+](=O)[O-] [IRAK-1-4 Inhibitor I]
Summary of the method: as §1

Measured: log2 fold change

VPS51 (UniProt Q9UID3)
inactive: erlotinib 0.034 | [1] -0.067 | [2] -0.015 | [3] 0.028 | [4] 0.004 | [5] 0.008 | [6] 0.017 | [7] 0 | [8] 0.023 | IRAK-1-4 Inhibitor I 0.014

WDR61 (UniProt Q9GZS3)
inactive: erlotinib -0.011 | [1] -0.009 | [2] 0.02 | [3] -0.025 | [4] -0.029 | [5] -0.03 | [6] 0.031 | [7] 0.012 | [8] 0.023 | IRAK-1-4 Inhibitor I -0.036

WBP4 (UniProt O75554)
inactive: erlotinib -0.036 | [1] -0.104 | [2] 0.042 | [3] 0.039 | [4] -0.026 | [5] 0.01 | [6] 0.008 | [7] -0.013 | [8] 0.017 | IRAK-1-4 Inhibitor I 0.027

VKORC1L1, A0A3B3ISV4
inactive: erlotinib 0.065 | [1] -0.121 | [2] -0.057 | [3] 0.022 | [4] 0.043 | [5] -0.018 | [6] 0.084 | [7] -0.02 | [8] -0.041 | IRAK-1-4 Inhibitor I 0.051

WDR45 isoform 2 (UniProt Q9Y484)
inactive: erlotinib -0.047 | [1] -0.032 | [2] -0.024 | [3] -0.001 | [4] 0.06 | [5] -0.008 | [6] -0.016 | [7] 0.041 | [8] -0.005 | IRAK-1-4 Inhibitor I -0.012

WDR53 (UniProt Q7Z5U6)
inactive: erlotinib -0.085 | [1] -0.391 | [2] 0.085 | [3] 0.014 | [4] 0.118 | [5] 0.041 | [6] 0.123 | [7] -0.038 | [8] 0.036 | IRAK-1-4 Inhibitor I 0.004

WDR11 (UniProt Q9BZH6)
inactive: erlotinib 0.015 | [1] -0.206 | [2] 0.036 | [3] -0.076 | [4] -0.003 | [5] -0.018 | [6] -0.077 | [7] -0.106 | [8] 0.007 | IRAK-1-4 Inhibitor I 0.022

VPS8 (UniProt Q8N3P4)
inactive: erlotinib 0.04 | [1] -0.006 | [2] -0.059 | [3] 0.036 | [4] 0.028 | [5] 0.164 | [6] -0.045 | [7] 0.01 | [8] 0.026 | IRAK-1-4 Inhibitor I 0.074

WDR34 (UniProt Q96EX3)
inactive: erlotinib 0.049 | [1] -0.025 | [2] 0.021 | [3] -0.001 | [4] -0.008 | [5] -0.025 | [6] 0.035 | [7] -0.019 | [8] -0.012 | IRAK-1-4 Inhibitor I -0.027

VPS36 (UniProt Q86VN1)
inactive: erlotinib -0.014 | [1] 0.008 | [2] 0.017 | [3] 0.004 | [4] -0.02 | [5] -0.006 | [6] -0.011 | [7] 0 | [8] -0.018 | IRAK-1-4 Inhibitor I 0.023

WASHC5 (UniProt Q12768)
inactive: erlotinib -0.018 | [1] -0.06 | [2] -0.008 | [3] 0.013 | [4] -0.025 | [5] -0.021 | [6] 0.006 | [7] -0.016 | [8] -0.003 | IRAK-1-4 Inhibitor I -0.003

VMP1 (UniProt Q96GC9)
inactive: erlotinib -0.036 | [1] 0.015 | [2] 0.083 | [3] 0.034 | [4] 0.034 | [5] -0.023 | [6] -0.039 | [7] -0.035 | [8] 0.019 | IRAK-1-4 Inhibitor I 0.05

WIPF1 isoform 3 (UniProt O43516)
inactive: erlotinib -0.026 | [1] 0.04 | [2] 0.02 | [3] -0.012 | [4] -0.001 | [5] 0.076 | [6] -0.031 | [7] -0.005 | [8] -0.021 | IRAK-1-4 Inhibitor I 0.094

VPS37C (UniProt A5D8V6)
inactive: erlotinib -0.06 | [1] -0.012 | [2] -0.024 | [3] 0.084 | [4] -0.056 | [5] -0.063 | [6] 0 | [7] -0.059 | [8] 0.068 | IRAK-1-4 Inhibitor I 0.083

WIZ isoform 3 (UniProt O95785)
inactive: erlotinib -0.007 | [1] -0.02 | [2] 0.046 | [3] -0.011 | [4] -0.085 | [5] -0.005 | [6] -0.001 | [7] -0.003 | [8] 0.029 | IRAK-1-4 Inhibitor I 0.002

WDR75 (UniProt Q8IWA0)
inactive: erlotinib 0.021 | [1] 0.034 | [2] -0.049 | [3] 0.048 | [4] 0 | [5] -0.03 | [6] -0.115 | [7] 0.02 | [8] -0.041 | IRAK-1-4 Inhibitor I 0.017

WNK1 isoform 7 (UniProt Q9H4A3)
inactive: erlotinib -0.016 | [1] -0.03 | [2] 0.037 | [3] 0 | [4] -0.026 | [5] -0.006 | [6] 0.011 | [7] -0.005 | [8] -0.006 | IRAK-1-4 Inhibitor I -0.012

XIAP (UniProt P98170)
inactive: erlotinib 0.02 | [1] -0.016 | [2] -0.039 | [3] 0.042 | [4] 0.025 | [5] 0.03 | [6] -0.014 | [7] -0.001 | [8] 0.025 | IRAK-1-4 Inhibitor I 0.046

VPS54 (UniProt Q9P1Q0)
inactive: erlotinib -0.018 | [1] -0.061 | [2] 0.059 | [3] -0.117 | [4] 0.213 | [5] -0.044 | [6] -0.114 | [7] -0.019 | [8] -0.079 | IRAK-1-4 Inhibitor I 0.036

VRK1 (UniProt Q99986)
inactive: erlotinib 0.009 | [1] -0.05 | [2] 0.002 | [3] 0.049 | [4] 0.015 | [5] 0.024 | [6] -0.02 | [7] 0 | [8] 0.02 | IRAK-1-4 Inhibitor I -0.02

VPS11 (UniProt Q9H270)
inactive: erlotinib 0.049 | [1] -0.037 | [2] 0.014 | [3] 0.034 | [4] 0.014 | [5] 0.011 | [6] -0.053 | [7] 0.003 | [8] -0.002 | IRAK-1-4 Inhibitor I -0.031

WIPI2 (UniProt Q9Y4P8)
inactive: erlotinib -0.006 | [1] -0.042 | [2] -0.009 | [3] 0.064 | [4] -0.037 | [5] -0.003 | [6] 0.035 | [7] -0.054 | [8] -0.047 | IRAK-1-4 Inhibitor I 0.021

WDR18 (UniProt Q9BV38)
inactive: erlotinib 0.018 | [1] -0.047 | [2] 0.018 | [3] -0.015 | [4] -0.003 | [5] 0.004 | [6] 0.029 | [7] -0.035 | [8] -0.023 | IRAK-1-4 Inhibitor I 0.044

VPS13B (UniProt Q7Z7G8)
inactive: erlotinib 0.109 | [1] 0.056 | [2] -0.056 | [3] 0.067 | [4] 0.106 | [5] -0.066 | [6] -0.137 | [7] -0.115 | [8] 0.027 | IRAK-1-4 Inhibitor I -0.076

WWP2 (UniProt O00308)
inactive: erlotinib -0.059 | [1] 0.828 | [2] 0.026 | [3] 0.03 | [4] -0.014 | [5] 0.031 | [6] 0.063 | [7] -0.091 | [8] 0.041 | IRAK-1-4 Inhibitor I 0.03

Taken from above (8 entries):
WIZ isoform 3 (UniProt O95785)
inactive: erlotinib -0.007 | [1] -0.02 | [2] 0.046 | [3] -0.011 | [4] -0.085 | [5] -0.005 | [6] -0.001 | [7] -0.003 | [8] 0.029 | IRAK-1-4 Inhibitor I 0.002

WDR75 (UniProt Q8IWA0)
inactive: erlotinib 0.021 | [1] 0.034 | [2] -0.049 | [3] 0.048 | [4] 0 | [5] -0.03 | [6] -0.115 | [7] 0.02 | [8] -0.041 | IRAK-1-4 Inhibitor I 0.017

WNK1 isoform 7 (UniProt Q9H4A3)
inactive: erlotinib -0.016 | [1] -0.03 | [2] 0.037 | [3] 0 | [4] -0.026 | [5] -0.006 | [6] 0.011 | [7] -0.005 | [8] -0.006 | IRAK-1-4 Inhibitor I -0.012

XIAP (UniProt P98170)
inactive: erlotinib 0.02 | [1] -0.016 | [2] -0.039 | [3] 0.042 | [4] 0.025 | [5] 0.03 | [6] -0.014 | [7] -0.001 | [8] 0.025 | IRAK-1-4 Inhibitor I 0.046

VPS54 (UniProt Q9P1Q0)
inactive: erlotinib -0.018 | [1] -0.061 | [2] 0.059 | [3] -0.117 | [4] 0.213 | [5] -0.044 | [6] -0.114 | [7] -0.019 | [8] -0.079 | IRAK-1-4 Inhibitor I 0.036

VRK1 (UniProt Q99986)
inactive: erlotinib 0.009 | [1] -0.05 | [2] 0.002 | [3] 0.049 | [4] 0.015 | [5] 0.024 | [6] -0.02 | [7] 0 | [8] 0.02 | IRAK-1-4 Inhibitor I -0.02

VPS11 (UniProt Q9H270)
inactive: erlotinib 0.049 | [1] -0.037 | [2] 0.014 | [3] 0.034 | [4] 0.014 | [5] 0.011 | [6] -0.053 | [7] 0.003 | [8] -0.002 | IRAK-1-4 Inhibitor I -0.031

WIPI2 (UniProt Q9Y4P8)
inactive: erlotinib -0.006 | [1] -0.042 | [2] -0.009 | [3] 0.064 | [4] -0.037 | [5] -0.003 | [6] 0.035 | [7] -0.054 | [8] -0.047 | IRAK-1-4 Inhibitor I 0.021

Next part:

WDR45B (UniProt Q5MNZ6)
inactive: erlotinib -0.016 | [1] 0 | [2] 0.075 | [3] -0.024 | [4] 0.034 | [5] -0.007 | [6] 0.036 | [7] 0.01 | [8] 0.022 | IRAK-1-4 Inhibitor I 0.006

VPS29 isoform 2 (UniProt Q9UBQ0)
inactive: erlotinib -0.005 | [1] 0.05 | [2] -0.013 | [3] 0.004 | [4] 0.018 | [5] 0.01 | [6] 0.034 | [7] -0.012 | [8] 0.009 | IRAK-1-4 Inhibitor I -0.021

WASF2 (UniProt Q9Y6W5)
inactive: erlotinib -0.023 | [1] 0.023 | [2] -0.004 | [3] -0.016 | [4] 0 | [5] -0.033 | [6] -0.002 | [7] 0.002 | [8] 0.008 | IRAK-1-4 Inhibitor I -0.016

WASH6P (UniProt Q9NQA3)
inactive: [4] 0.195

VTI1B (UniProt Q9UEU0)
inactive: erlotinib -0.062 | [2] -0.011 | [4] 0.047 | [5] 0.054 | [7] 0.009 | [8] 0.046 | IRAK-1-4 Inhibitor I -0.058

WDR54 isoform 4 (UniProt Q9H977)
inactive: [1] -0.06 | [3] 0.048 | [4] 0.017 | [6] -0.149 | [7] 0.082 | [8] -0.066

From the supplement of paper PMC10849652
